# PubChem BioAssay AID1259298 – Sanger Institute, 2017
# Assay: 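Kinase knock-downs that cut colorectal cancer cell viability or act with targeted drugs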 (primary screen)
# Cells: HT55 human colorectal cancer cell line
# Reagent: siRNA pool against human genes
# Conditions: anchor drug BYL719 1 µM, cetuximab 5 µg/ml or trametinib 10 nM, or DMSO vehicle alone
# Read-out: 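Replicate-averaged viability versus wells of non-targeting pool; knock-down-only robust z-score; per-drug synergy score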
# Direction: robust z-score, knock-down alone: higher = more cells remaining; low means essential gene; viability vs control pool, no drug: higher = more viable cells; synergy score with BYL719 and synergy score with cetuximab and synergy score with trametinib: higher = stronger synthetic lethality with the drug
# Rule for the call: 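Essential when the robust z-score for knock-down alone with DMSO is below -3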
# Meaning of the calls: active = essential (knock-down alone); inactive = no change alone
# The whole screen tested 794 reagents; shown is a part drawn at random. Of all reagents, 20 (2.5%) were called active. 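Calls rest only on the knock-down-alone score; drug synergy scores played no part in them.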 No viability above 1 is reported: the scale is capped. Not stated in the record: the amount of reagent, the time to read-out.
gene,"robust z-score, knock-down alone","viability vs control pool, no drug (fraction)",synergy score with BYL719,synergy score with cetuximab,synergy score with trametinib,call
PTK6,0.379,0.984,-0.267,-0.224,-0.0705,inactive
PFKM,0.222,0.972,-0.0612,-0.0924,-0.0434,inactive
NEK1,-0.887,0.885,-0.109,-0.142,0.0787,inactive
TGFBR3,0.58,1,-0.272,-0.123,-0.138,inactive
NME4,0.58,1,-0.0113,-0.0653,0.086,inactive
NTRK3,0.58,1,-0.272,-0.211,-0.13,inactive
NME6,-1.24,0.858,-0.174,0.0665,-0.0334,inactive
ATR,0.237,0.973,-0.133,-0.203,0.00801,inactive
TGFBR2,-0.0585,0.95,-0.115,-0.0875,0.0745,inactive
CDK12,0.161,0.967,-0.0864,-0.000172,0.0663,inactive
MKNK1,0.58,1,-0.223,-0.128,-0.0385,inactive
ANKK1,-0.854,0.888,-0.0917,0.0978,0.0167,inactive
GK,0.58,1,-0.208,-0.211,-0.021,inactive
MAPK1,0.379,0.984,-0.191,-0.102,0.14,inactive
NUP107,-3.4,0.689,-0.306,-0.222,-0.12,active
PRKD1,0.58,1,-0.117,-0.185,-0.0452,inactive
MAK,-0.125,0.945,-0.217,-0.224,-0.0998,inactive
LRRK2,0.58,1,-0.142,-0.0702,0.0247,inactive
CALM2,-1.38,0.847,-0.195,-0.103,0.0657,inactive
STK3,0.58,1,-0.272,-0.211,-0.0558,inactive

Look-ups from the entries so far.
Result for TGFBR3 in “viability vs control pool, no drug (fraction)”: 1
MKNK1, call: inactive
GK, synergy score with trametinib: -0.021
